Source: the supplement of paper PMC10849652
The other results are listed elsewhere or left out.

Sequences of proteins named here, by UniProt entry; tags and fusion partners are left off. A change or cut given only in a name is not applied to a line headed by its entry.
UniProt P30086: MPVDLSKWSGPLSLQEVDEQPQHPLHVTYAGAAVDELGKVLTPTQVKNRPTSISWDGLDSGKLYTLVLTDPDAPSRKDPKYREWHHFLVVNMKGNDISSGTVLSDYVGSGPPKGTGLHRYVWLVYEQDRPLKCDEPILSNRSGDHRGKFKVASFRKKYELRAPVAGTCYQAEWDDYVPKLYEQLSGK
UniProt Q9H813: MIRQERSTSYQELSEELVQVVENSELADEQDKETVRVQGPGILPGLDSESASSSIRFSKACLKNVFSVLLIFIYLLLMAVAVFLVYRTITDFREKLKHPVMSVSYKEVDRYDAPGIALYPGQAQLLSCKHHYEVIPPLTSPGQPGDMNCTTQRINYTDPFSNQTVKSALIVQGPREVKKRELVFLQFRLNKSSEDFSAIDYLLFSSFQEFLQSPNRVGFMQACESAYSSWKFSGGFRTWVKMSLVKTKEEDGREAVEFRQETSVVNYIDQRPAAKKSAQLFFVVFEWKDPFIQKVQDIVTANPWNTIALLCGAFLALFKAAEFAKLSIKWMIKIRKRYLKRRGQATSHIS
UniProt P0DJ07: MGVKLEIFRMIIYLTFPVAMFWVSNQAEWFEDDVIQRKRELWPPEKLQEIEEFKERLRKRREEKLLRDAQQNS
UniProt Q7L3T8: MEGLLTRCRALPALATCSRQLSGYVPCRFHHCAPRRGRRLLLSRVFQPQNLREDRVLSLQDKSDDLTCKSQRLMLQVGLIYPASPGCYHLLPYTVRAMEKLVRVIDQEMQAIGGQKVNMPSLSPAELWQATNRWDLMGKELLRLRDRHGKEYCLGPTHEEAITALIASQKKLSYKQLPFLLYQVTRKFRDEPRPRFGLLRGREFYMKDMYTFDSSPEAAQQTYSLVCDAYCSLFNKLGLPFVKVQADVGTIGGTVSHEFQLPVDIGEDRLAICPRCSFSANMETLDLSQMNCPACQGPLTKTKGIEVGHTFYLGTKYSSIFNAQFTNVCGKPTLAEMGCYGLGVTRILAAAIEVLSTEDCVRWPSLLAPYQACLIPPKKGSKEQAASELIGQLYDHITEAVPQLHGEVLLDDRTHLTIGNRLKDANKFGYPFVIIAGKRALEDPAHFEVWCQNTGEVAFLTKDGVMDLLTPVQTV
UniProt Q96GU1: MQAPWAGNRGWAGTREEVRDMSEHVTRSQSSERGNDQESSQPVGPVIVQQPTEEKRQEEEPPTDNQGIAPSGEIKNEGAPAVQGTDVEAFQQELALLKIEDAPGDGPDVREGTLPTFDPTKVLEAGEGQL
UniProt O43924: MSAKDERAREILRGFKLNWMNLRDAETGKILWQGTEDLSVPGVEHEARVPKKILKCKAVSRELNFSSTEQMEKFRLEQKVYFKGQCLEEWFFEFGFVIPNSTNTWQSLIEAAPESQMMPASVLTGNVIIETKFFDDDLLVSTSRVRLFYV
UniProt Q9H074: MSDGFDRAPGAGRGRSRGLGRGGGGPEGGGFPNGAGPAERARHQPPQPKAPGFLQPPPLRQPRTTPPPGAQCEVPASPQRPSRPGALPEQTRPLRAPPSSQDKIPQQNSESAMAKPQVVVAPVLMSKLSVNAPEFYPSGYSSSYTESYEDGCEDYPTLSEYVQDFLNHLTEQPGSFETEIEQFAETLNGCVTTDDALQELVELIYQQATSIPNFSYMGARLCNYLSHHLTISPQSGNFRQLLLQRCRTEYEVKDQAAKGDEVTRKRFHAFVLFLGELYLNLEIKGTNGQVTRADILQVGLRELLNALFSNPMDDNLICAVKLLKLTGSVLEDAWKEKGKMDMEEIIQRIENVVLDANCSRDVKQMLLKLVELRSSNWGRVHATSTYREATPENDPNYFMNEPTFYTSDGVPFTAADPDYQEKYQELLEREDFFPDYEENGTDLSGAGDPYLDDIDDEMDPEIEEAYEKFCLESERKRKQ
UniProt P22234: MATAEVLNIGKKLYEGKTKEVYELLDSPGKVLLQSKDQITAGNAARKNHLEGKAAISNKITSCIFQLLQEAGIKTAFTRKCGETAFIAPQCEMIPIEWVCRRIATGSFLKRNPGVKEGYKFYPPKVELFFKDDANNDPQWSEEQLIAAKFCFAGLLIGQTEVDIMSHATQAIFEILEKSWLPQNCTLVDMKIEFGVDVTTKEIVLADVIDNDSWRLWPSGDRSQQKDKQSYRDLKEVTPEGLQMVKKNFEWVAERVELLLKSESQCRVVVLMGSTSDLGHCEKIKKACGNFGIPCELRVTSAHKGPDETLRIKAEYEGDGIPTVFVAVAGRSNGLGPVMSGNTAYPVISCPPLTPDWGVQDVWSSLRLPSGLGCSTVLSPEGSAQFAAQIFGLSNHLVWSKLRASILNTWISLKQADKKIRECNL
UniProt P50479: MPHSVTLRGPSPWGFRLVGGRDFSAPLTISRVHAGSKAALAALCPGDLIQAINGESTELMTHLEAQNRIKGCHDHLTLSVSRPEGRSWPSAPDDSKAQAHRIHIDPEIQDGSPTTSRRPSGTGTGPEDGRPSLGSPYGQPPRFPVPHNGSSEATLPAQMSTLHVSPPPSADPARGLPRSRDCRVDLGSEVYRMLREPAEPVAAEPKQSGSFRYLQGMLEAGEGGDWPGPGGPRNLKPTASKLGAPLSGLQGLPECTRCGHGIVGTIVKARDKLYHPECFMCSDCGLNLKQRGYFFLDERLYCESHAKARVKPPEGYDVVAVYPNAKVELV
UniProt O75340: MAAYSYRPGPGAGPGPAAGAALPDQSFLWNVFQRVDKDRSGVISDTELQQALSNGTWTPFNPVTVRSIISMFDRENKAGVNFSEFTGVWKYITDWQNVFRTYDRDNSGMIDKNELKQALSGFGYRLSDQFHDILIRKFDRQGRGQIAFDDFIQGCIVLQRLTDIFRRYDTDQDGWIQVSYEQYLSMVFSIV
UniProt Q9H0N5: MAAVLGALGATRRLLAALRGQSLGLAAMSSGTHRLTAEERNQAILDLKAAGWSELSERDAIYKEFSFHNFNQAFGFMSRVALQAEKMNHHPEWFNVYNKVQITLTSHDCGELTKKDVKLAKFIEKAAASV
UniProt Q96GD0: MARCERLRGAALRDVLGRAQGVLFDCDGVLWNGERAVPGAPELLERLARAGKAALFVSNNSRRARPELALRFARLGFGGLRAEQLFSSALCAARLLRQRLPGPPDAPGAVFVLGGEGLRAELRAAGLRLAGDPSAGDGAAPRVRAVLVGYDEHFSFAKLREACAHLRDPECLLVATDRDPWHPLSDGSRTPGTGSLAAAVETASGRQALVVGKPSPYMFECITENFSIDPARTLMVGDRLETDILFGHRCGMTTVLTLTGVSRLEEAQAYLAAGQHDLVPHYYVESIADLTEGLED
UniProt Q13310, whole entry, looked up: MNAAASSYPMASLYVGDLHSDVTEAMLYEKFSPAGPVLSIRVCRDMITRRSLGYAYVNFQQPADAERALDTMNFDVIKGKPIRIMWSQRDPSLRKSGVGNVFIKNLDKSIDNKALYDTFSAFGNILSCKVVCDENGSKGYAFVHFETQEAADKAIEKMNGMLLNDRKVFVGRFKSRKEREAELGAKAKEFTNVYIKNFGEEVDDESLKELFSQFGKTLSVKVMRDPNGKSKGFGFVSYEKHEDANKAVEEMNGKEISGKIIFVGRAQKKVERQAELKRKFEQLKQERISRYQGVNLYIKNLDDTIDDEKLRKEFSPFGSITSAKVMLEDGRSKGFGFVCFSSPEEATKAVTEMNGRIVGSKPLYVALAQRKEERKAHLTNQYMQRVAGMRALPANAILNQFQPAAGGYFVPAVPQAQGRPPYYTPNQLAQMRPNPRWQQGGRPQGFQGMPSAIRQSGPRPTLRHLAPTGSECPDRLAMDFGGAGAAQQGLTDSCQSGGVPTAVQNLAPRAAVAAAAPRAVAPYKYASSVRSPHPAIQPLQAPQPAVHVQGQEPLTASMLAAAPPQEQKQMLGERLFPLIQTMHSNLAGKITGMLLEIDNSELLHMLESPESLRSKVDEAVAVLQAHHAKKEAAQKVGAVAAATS
UniProt Q5VU43: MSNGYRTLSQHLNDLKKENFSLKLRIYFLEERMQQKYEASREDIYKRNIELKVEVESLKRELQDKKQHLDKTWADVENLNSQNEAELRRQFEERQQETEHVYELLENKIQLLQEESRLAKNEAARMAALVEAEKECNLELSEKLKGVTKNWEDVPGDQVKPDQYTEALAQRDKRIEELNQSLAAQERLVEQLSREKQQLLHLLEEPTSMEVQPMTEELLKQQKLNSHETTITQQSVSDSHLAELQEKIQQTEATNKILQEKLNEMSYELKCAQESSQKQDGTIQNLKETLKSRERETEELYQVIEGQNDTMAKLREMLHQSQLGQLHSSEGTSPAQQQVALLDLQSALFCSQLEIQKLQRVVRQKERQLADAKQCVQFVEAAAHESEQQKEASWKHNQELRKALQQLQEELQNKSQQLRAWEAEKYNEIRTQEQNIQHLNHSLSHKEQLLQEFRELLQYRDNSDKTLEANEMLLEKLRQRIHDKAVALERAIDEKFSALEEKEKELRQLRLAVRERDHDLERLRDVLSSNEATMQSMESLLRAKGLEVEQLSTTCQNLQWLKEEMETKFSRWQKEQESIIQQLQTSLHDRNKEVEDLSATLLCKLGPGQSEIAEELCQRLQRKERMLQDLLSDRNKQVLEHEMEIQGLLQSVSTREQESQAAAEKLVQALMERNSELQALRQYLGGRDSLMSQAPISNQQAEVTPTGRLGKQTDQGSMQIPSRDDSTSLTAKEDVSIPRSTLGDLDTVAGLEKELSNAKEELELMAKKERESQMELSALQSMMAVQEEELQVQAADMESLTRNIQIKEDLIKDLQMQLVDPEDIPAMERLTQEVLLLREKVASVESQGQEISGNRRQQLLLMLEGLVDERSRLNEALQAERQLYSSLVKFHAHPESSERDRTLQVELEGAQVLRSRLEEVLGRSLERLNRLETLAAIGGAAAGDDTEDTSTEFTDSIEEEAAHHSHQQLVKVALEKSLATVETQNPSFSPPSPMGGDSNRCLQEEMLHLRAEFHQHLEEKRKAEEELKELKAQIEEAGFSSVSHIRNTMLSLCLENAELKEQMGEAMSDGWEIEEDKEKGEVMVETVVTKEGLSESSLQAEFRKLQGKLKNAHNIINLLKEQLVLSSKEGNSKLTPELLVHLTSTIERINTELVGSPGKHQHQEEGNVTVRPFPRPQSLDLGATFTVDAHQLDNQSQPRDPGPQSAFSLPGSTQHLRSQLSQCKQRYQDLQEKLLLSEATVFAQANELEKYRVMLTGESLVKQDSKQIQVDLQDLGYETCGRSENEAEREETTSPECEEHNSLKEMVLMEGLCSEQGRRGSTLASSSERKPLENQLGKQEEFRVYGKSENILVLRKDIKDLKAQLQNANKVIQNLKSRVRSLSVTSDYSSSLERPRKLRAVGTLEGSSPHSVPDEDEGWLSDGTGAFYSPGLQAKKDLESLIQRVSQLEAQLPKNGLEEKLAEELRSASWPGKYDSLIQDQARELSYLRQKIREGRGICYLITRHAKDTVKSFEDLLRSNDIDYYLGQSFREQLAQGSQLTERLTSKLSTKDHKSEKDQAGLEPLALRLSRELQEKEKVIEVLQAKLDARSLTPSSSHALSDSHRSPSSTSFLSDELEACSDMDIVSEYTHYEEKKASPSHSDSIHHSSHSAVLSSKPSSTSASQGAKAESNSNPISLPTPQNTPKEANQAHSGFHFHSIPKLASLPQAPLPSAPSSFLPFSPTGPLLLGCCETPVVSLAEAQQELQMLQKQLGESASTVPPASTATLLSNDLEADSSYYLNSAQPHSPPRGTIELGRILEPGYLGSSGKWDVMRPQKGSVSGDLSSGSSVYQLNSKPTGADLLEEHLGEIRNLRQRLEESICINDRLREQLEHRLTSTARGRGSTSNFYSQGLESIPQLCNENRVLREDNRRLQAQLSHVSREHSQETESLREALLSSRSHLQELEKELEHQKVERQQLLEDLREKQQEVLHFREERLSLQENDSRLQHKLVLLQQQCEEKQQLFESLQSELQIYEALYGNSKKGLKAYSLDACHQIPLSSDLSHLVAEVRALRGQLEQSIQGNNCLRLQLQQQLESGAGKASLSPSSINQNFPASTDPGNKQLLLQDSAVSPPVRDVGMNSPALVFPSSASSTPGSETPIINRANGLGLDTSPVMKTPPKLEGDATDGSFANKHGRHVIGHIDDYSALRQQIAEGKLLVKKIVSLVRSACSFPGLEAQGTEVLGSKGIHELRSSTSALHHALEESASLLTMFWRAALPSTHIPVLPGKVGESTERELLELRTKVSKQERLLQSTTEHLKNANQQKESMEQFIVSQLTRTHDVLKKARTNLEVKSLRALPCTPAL
UniProt Q99447: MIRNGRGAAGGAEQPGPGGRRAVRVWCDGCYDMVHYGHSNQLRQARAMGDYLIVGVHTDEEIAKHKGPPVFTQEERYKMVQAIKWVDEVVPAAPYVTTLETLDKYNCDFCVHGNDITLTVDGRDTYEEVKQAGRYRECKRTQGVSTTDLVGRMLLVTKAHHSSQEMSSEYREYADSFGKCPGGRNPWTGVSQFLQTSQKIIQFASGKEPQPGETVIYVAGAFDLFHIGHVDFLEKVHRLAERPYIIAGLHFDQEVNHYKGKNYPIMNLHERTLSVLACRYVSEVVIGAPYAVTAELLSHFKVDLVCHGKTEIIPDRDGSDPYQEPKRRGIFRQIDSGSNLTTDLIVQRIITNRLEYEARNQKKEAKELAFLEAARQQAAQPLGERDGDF

Key:
Test in all cases: log2 fold change, soluble protein after heating vs DMSO (PISA); higher = thermal stabilisation; K562 cells, 10 uM, 30 min; active = over 0.2 and 3.5 SD of the protein, either way, in both replicates (recomputed)
[1] = compound: C1=CC=C(C=C1)[C@H](COC2=CC3=C(C=C2)NC(=O)N3)NC(=O)C4=CC=CN(C4=O)CC5=CC(=C(C=C5)F)F
Outline: (§1)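 For each measurement, 10 μM compound was applied for 30 min to K562 cells at 2×10^6 cells/mL. Aliquots were heated for 3 min across 48°C-58°C, pooled, and extracted in PBS with 0.5% NP-40 at 4°C; the supernatant after 21,000xg for 90 min was soluble protein. This was quantified by TMTpro 16plex LC-MS/MS with channel sums equalised, and thermal stability was reported relative to control samples from duplicates, on a log2 fold-change scale.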

[2] = compound: CC1=C(SC2=C1C(=N[C@H](C3=NN=C(N32)C)CC(=O)N)C4=CC=C(C=C4)Cl)C
Outline: as §1

[3] = compound: CC1=C2C(=CC=C1)N=C(N(C2=O)C3=CC=CC=C3C)CN4C=NC5=C(N=CN=C54)N
Outline: as §1

[4] = compound: Cc1sc2c(c1C)C(c1ccc(Cl)cc1)=N[C@@H](CC(=O)OC(C)(C)C)c1nnc(C)n1-2
Outline: as §1

[5] = compound: c1ccc([C@@H]2C[C@H]2NC2CCNCC2)cc1
Outline: as §1

Measured: log2 fold change

PDSS2 (UniProt Q86YH6)
inactive: [1] -0.066 | [2] 0.052 | [3] 0.085 | [4] 0.005 | [5] 0.094

PBLD (UniProt P30039)
inactive: [1] -0.082 | [2] 0.141 | [3] 0.087 | [4] -0.036 | [5] -0.021

PELP1 (UniProt Q8IZL8)
inactive: [1] 0 | [2] 0.006 | [3] -0.028 | [4] -0.044 | [5] -0.013

PEBP1 (UniProt P30086)
inactive: [1] 0.012 | [2] 0.034 | [3] -0.037 | [4] 0.033 | [5] 0.02

PANK4 (UniProt Q9NVE7)
inactive: [1] -0.051 | [2] 0.09 | [3] 0.04 | [4] 0.007 | [5] -0.018

PACC1 (UniProt Q9H813)
inactive: [1] 0 | [2] 0.037 | [3] 0.092 | [4] 0.009 | [5] -0.058

PARD6B (UniProt Q9BYG5)
inactive: [1] -0.023 | [2] 0.035 | [3] 0.079 | [4] 0.08 | [5] 0

PAK1 isoform 2 (UniProt Q13153)
inactive: [1] -0.152 | [2] 0.097 | [3] -0.113 | [4] -0.02 | [5] -0.092

PANK1 (UniProt Q8TE04)
inactive: [1] 0.02 | [2] -0.017 | [3] 0.059 | [4] -0.047 | [5] 0.022

PET100 (UniProt P0DJ07)
inactive: [1] 0.003 | [2] 0.041 | [3] 0.084 | [4] -0.061 | [5] -0.021

PARS2 (UniProt Q7L3T8)
inactive: [1] 0.033 | [2] -0.008 | [3] 0.012 | [4] 0.04 | [5] 0.007

PAGE5 (UniProt Q96GU1)
inactive: [1] 0.02 | [2] -0.065 | [3] -0.073 | [4] -0.063 | [5] 0.072

PDZD8 (UniProt Q8NEN9)
inactive: [1] -0.01 | [2] 0.04 | [3] 0.043 | [4] -0.037 | [5] -0.008

PALMD (UniProt Q9NP74)
inactive: [1] -0.016 | [2] 0.022 | [3] 0.046 | [4] 0.018 | [5] 0.079

PCBP1 (UniProt Q15365)
inactive: [1] -0.045 | [2] 0.047 | [3] 0.048 | [4] -0.03 | [5] 0

PDE6D (UniProt O43924)
inactive: [1] -0.053 | [2] 0.238 | [3] -0.004 | [4] -0.13 | [5] 0.017

PAIP1 (UniProt Q9H074)
inactive: [1] 0.005 | [2] 0.047 | [3] 0.023 | [4] 0.031 | [5] -0.024

Pulled one by one from the list above (three):
PDZD8 (UniProt Q8NEN9)
inactive: [1] -0.01 | [2] 0.04 | [3] 0.043 | [4] -0.037 | [5] -0.008

PCBP1 (UniProt Q15365)
inactive: [1] -0.045 | [2] 0.047 | [3] 0.048 | [4] -0.03 | [5] 0

PALMD (UniProt Q9NP74)
inactive: [1] -0.016 | [2] 0.022 | [3] 0.046 | [4] 0.018 | [5] 0.079

(cont.)

PDSS1 (UniProt Q5T2R2)
inactive: [1] -0.033 | [2] 0.031 | [3] 0.055 | [4] 0.024 | [5] -0.04

PCCB isoform 2 (UniProt P05166)
inactive: [1] -0.06 | [2] 0.049 | [3] -0.006 | [4] -0.026 | [5] 0.013

PCMT1 isoform 2 (UniProt P22061)
inactive: [1] -0.022 | [2] 0.067 | [3] 0.06 | [4] -0.023 | [5] -0.031

PAICS (UniProt P22234)
inactive: [1] -0.022 | [2] 0.014 | [3] 0.017 | [4] 0.006 | [5] 0.005

PAFAH1B1 (UniProt P43034)
inactive: [1] -0.014 | [2] 0.047 | [3] 0.037 | [4] -0.011 | [5] -0.001

PAK3 isoform 3 (UniProt O75914)
inactive: [1] 0.015 | [2] 0.028 | [3] -0.032 | [4] -0.023 | [5] -0.01

PDLIM7 (UniProt Q9NR12)
inactive: [1] -0.04 | [2] 0.044 | [3] 0.092 | [4] -0.023 | [5] -0.011

PANX1 (UniProt Q96RD7)
inactive: [1] -0.018 | [2] 0.051 | [3] 0.068 | [4] -0.018 | [5] 0.024

PDLIM4 (UniProt P50479)
inactive: [1] -0.004 | [2] 0.078 | [3] 0.057 | [4] -0.043 | [5] -0.027

PEX13 (UniProt Q92968)
inactive: [1] -0.064 | [2] 0.05 | [3] 0.078 | [4] -0.107 | [5] 0.001

PDCD6 (UniProt O75340)
inactive: [1] -0.024 | [2] 0.057 | [3] 0.107 | [4] -0.052 | [5] 0.003

PCBD2 (UniProt Q9H0N5)
inactive: [1] 0.009 | [2] 0.026 | [3] -0.02 | [4] 0.018 | [5] 0.013

PARN (UniProt O95453)
inactive: [1] -0.018 | [2] 0.059 | [3] 0.071 | [4] -0.028 | [5] 0.025

PDXP (UniProt Q96GD0)
inactive: [1] 0.01 | [2] 0.031 | [3] -0.001 | [4] -0.023 | [5] 0.024

PDF (UniProt Q9HBH1)
inactive: [1] 0.053 | [2] -0.009 | [3] 0.082 | [4] -0.008 | [5] 0.074

PAGE2 (UniProt Q7Z2X7)
inactive: [1] -0.048 | [2] 0.086 | [3] -0.025 | [4] -0.021 | [5] -0.049

PCM1 isoform 5 (UniProt Q15154)
inactive: [1] 0.078 | [2] -0.118 | [3] 0.009 | [4] 0.043 | [5] 0.041

PDXDC1 (UniProt Q6P996)
inactive: [1] -0.404 | [2] 0.068 | [3] 0.04 | [4] 0.192 | [5] -0.035

PAGE4 (UniProt O60829)
inactive: [1] -0.014 | [2] 0.086 | [3] 0.216 | [4] -0.015 | [5] -0.047

PAPOLA (UniProt P51003)
inactive: [1] -0.027 | [2] 0.051 | [3] 0.007 | [4] -0.058 | [5] -0.023

PDRG1 (UniProt Q9NUG6)
inactive: [1] -0.032 | [2] 0.059 | [3] 0.006 | [4] 0.022 | [5] 0

PBXIP1 (UniProt Q96AQ6)
inactive: [1] 0.018 | [2] 0.039 | [3] 0.048 | [4] -0.039 | [5] -0.012

PES1 (UniProt O00541)
inactive: [1] 0.017 | [2] -0.269 | [3] -0.103 | [4] 0.025 | [5] -0.099

PCLAF (UniProt Q15004)
inactive: [1] 0.055 | [2] -0.022 | [3] -0.045 | [4] 0.02 | [5] 0.07

PCYT1B (UniProt Q9Y5K3)
inactive: [1] -0.063 | [2] -0.003 | [3] 0.022 | [4] 0.042 | [5] 0.034

PAGE1 (UniProt O75459)
inactive: [1] -0.017 | [2] -0.055 | [3] -0.104 | [4] 0.036 | [5] 0.073

PCBP2 isoform 3 (UniProt Q15366)
inactive: [1] -0.051 | [2] 0.016 | [3] 0.055 | [4] -0.029 | [5] 0.005

PDIA3 (UniProt H7BZJ3)
inactive: [1] 0.055 | [2] -0.064 | [3] 0.236 | [4] -0.078 | [5] 0.022

PABPC4 isoform 3 (UniProt Q13310)
inactive: [1] 0.074 | [2] -0.113 | [3] -0.057 | [4] 0.139 | [5] 0.028

PCYT1A (UniProt P49585)
inactive: [1] -0.035 | [2] 0.005 | [3] 0.056 | [4] -0.012 | [5] 0.019

PAIP2 (UniProt Q9BPZ3)
inactive: [1] 0 | [2] 0.124 | [3] -0.011 | [4] 0.124 | [5] -0.083

PARK7 (UniProt Q99497)
inactive: [1] 0.025 | [2] 0.04 | [3] -0.073 | [4] -0.079 | [5] -0.016

PDS5A (UniProt Q29RF7)
inactive: [1] -0.34 | [2] 0.066 | [3] 0.096 | [4] 0.038 | [5] -0.105

PDE4DIP isoform 4 (UniProt Q5VU43)
inactive: [1] 0.023 | [2] 0.043 | [3] 0.046 | [4] -0.023 | [5] -0.011

PCYT2 isoform 3 (UniProt Q99447)
inactive: [1] -0.023 | [2] 0.031 | [3] -0.005 | [4] -0.023 | [5] 0.003

PDE12 (UniProt Q6L8Q7)
inactive: [1] -0.003 | [2] 0.059 | [3] 0.12 | [4] -0.05 | [5] -0.094
